Measurements as given in PubChem BioAssay AID328 (DTP/NCI, 2004).
The list shows only some results of the screen, not a fair sample: its compounds were picked by chemical class. Not every dose and run of a compound is shown. T/C gives the treated animals as a percentage of the vehicle group. Where survival is the endpoint, the PubChem record calls one and a half times the control and up active, and a quarter to a half above the control has no call in these data; cut-offs in other NCI protocols can differ. Schedules are NCI's codes, read here as Q, the interval in days (D) or hours (H), X, the number of doses. Some entries show no survivor count and are marked so; the dose need not have been tolerated. Some doses were run more than once; the values are given in rising order.

System: BDF1 mice, P388 leukemia ip, median survival T/C
Assay: NCI In Vivo Anticancer Drug Screen. Data for tumor model P388 Leukemia (intraperitoneal) in B6D2F1 (BDF1) mice
Settings: T/C endpoint: median survival time, higher T/C = longer survival
Protocol: The antitumor activity of compounds was measured in mice bearing transplantable tumors. Survival or tumor size were measured and the results are expressed as the measurement made in the treated group (T) divided by the measurement made in the vehicle treated control group (C). The tumor model used in this assay is P388 Leukemia (intraperitoneal) in B6D2F1 (BDF1) mice

[1] = dose: 5.0 mg/kg/injection, schedule: Q04DX002 (ip), vehicle: saline + alcohol
[2] = dose: 10.0 mg/kg/injection, schedule: Q04DX002 (ip), vehicle: saline + alcohol
[3] = dose: 20.0 mg/kg/injection, schedule: Q04DX002 (ip), vehicle: saline + alcohol

CC(=O)O[C@@H]1[C@@H](O)[C@H]2O[C@@H]3C=C(C)C(=O)[C@@H](O)[C@]3(CO)[C@]1(C)[C@]21CO1
T/C (dose: 0.8 mg/kg/injection, schedule: Q01DX009 (ip), vehicle: saline): 169 % of control [survivor count not shown] | T/C (dose: 1.73 mg/kg/injection, schedule: Q04DX003 (ip), vehicle: saline + alcohol): 108 % of control [survivor count not shown] | T/C (dose: 2.88 mg/kg/injection, schedule: Q04DX003 (ip), vehicle: saline + alcohol): 117 % of control [survivor count not shown] | T/C (dose: 4.8 mg/kg/injection, schedule: Q04DX003 (ip), vehicle: saline + alcohol): 130 % of control [survivor count not shown] | T/C (dose: 8.0 mg/kg/injection, schedule: Q04DX003 (ip), vehicle: saline + alcohol): 142 % of control [survivor count not shown]

CC(=O)OCC12C(C=C(C)C(=O)C1O)OC1C(O)C(OC(C)=O)C2(C)C12CO2 (stereo not given)
T/C [1]: 122 % of control [survivor count not shown]

CC1=C[C@H]2O[C@@H]3C[C@H]4OC(=O)/C=C\C=C\C(C(C)O)OCC[C@@H](C)[C@H](O)C(=O)OC[C@@]2(CC1)[C@]4(C)[C@]31CO1 (stereo not given in full)
T/C (dose: 0.04 mg/kg/injection, schedule: Q01DX009 (ip), vehicle: saline with Tween-80): 117 % of control [survivor count not shown] | T/C (dose: 0.08 mg/kg/injection, schedule: Q01DX009 (ip), vehicle: saline with Tween-80): 128 % of control [survivor count not shown] | T/C (dose: 0.15 mg/kg/injection, schedule: Q01DX009 (ip), vehicle: saline with Tween-80): 120 % of control [survivor count not shown] | T/C (dose: 0.32 mg/kg/injection, schedule: Q04DX003 (ip), vehicle: saline + alcohol): 126 % of control [survivor count not shown] | T/C (dose: 125.0 micrograms/kg/injection, schedule: Q04DX002 (ip), vehicle: saline + alcohol): 100 % of control [survivor count not shown] | T/C (dose: 130.0 micrograms/kg/injection, schedule: Q04DX003 (ip), vehicle: saline + alcohol): 129 % of control [survivor count not shown] | T/C (dose: 216.0 micrograms/kg/injection, schedule: Q04DX003 (ip), vehicle: saline + alcohol): 129 % of control [survivor count not shown] | T/C (dose: 250.0 micrograms/kg/injection, schedule: Q04DX002 (ip), vehicle: saline + alcohol): 105 % of control [survivor count not shown] | T/C (dose: 360.0 micrograms/kg/injection, schedule: Q04DX003 (ip), vehicle: saline + alcohol): 132 % of control [survivor count not shown] | T/C (dose: 600.0 micrograms/kg/injection, schedule: Q04DX003 (ip), vehicle: saline + alcohol): 121 % of control [survivor count not shown]

CC(=O)OCC12CC(O)C(C)=CC1OC1C(O)C(OC(C)=O)C2(C)C12CO2 (stereo not given)
T/C (dose: 0.31 mg/kg/injection, schedule: Q01DX009 (ip), vehicle: saline): 125 % of control [survivor count not shown] | T/C (dose: 0.63 mg/kg/injection, schedule: Q01DX009 (ip), vehicle: saline): 150 % of control [survivor count not shown] | T/C (dose: 1.25 mg/kg/injection, schedule: Q01DX009 (ip), vehicle: saline): 150 [survivor count not shown] and 213 % of control [survivor count not shown] | T/C (dose: 2.5 mg/kg/injection, schedule: Q01DX009 (ip), vehicle: saline): 151 [survivor count not shown] and 216 % of control [survivor count not shown] | T/C (dose: 5.0 mg/kg/injection, schedule: Q01DX009 (ip), vehicle: saline): 97 % of control [survivor count not shown]

CC1=CC2OC3CC4OC(=O)/C=C/C=C/C(C(C)O)OCC(O)C(C)CC(=O)OCC2(CC1O)C4(C)C31CO1 (stereo not given)
T/C (dose: 0.31 mg/kg/injection, schedule: Q01DX009 (ip), vehicle: Klucel (hydroxypropylcellulose) (HPC)): 144 % of control [survivor count not shown] | T/C (dose: 0.63 mg/kg/injection, schedule: Q01DX009 (ip), vehicle: Klucel (hydroxypropylcellulose) (HPC)): 164 % of control [survivor count not shown] | T/C (dose: 1.17 mg/kg/injection, schedule: Q04DX003 (ip), vehicle: saline + alcohol): 111 % of control [survivor count not shown] | T/C (dose: 1.25 mg/kg/injection, schedule: Q01DX009 (ip), vehicle: Klucel (hydroxypropylcellulose) (HPC)): 191 % of control [survivor count not shown] | T/C (dose: 540.0 micrograms/kg/injection, schedule: Q04DX003 (ip), vehicle: other): 177 % of control [survivor count not shown] | T/C (dose: 900.0 micrograms/kg/injection, schedule: Q04DX003 (ip), vehicle: other): 155 % of control [survivor count not shown]

CC(=O)OCC12CCC(C)=CC1OC1C(O)C(O)C2(C)C12CO2 (stereo not given)
T/C (dose: 2.5 mg/kg/injection, schedule: Q04DX002 (ip), vehicle: saline + alcohol): 135 % of control [survivor count not shown] | T/C [1]: 149 % of control [survivor count not shown] | T/C [2]: 162 % of control [survivor count not shown] | T/C [3]: 153 % of control [survivor count not shown]

CC1=C[C@H]2O[C@@H]3C[C@H]4OC(=O)/C=C\C=C\C5OC(C/C(C)=C\C(=O)OCC2(CC1)[C@]4(C)[C@]31CO1)OC5C (stereo not given in full)
T/C (dose: 1.56 mg/kg/injection, schedule: Q01DX009 (ip), vehicle: saline with Tween-80): 123 % of control [survivor count not shown] | T/C (dose: 3.13 mg/kg/injection, schedule: Q01DX009 (ip), vehicle: saline with Tween-80): 130 % of control [survivor count not shown] | T/C (dose: 6.25 mg/kg/injection, schedule: Q01DX009 (ip), vehicle: saline with Tween-80): 130 % of control [survivor count not shown]

CC(=O)OCC12C(C=C(C)C(=O)C1OC(C)=O)OC1C(OC(C)=O)C(OC(C)=O)C2(C)C12CO2 (stereo not given)
T/C [1]: 89 % of control [survivor count not shown] | T/C [2]: 109 % of control [survivor count not shown] | T/C [3]: 100 % of control [survivor count not shown] | T/C (dose: 40.0 mg/kg/injection, schedule: Q04DX002 (ip), vehicle: saline + alcohol): 100 % of control [survivor count not shown]

C=C(C)C(=O)OCC12CCC(C)=CC1OC1C(=O)C(OC(=O)C(=C)C)C2(C)C12CO2 (stereo not given)
T/C (dose: 0.25 mg/kg/injection, schedule: Q01DX005 (ip), vehicle: water): 94 [survivor count not shown] and 95 % of control [survivor count not shown] | T/C (dose: 0.5 mg/kg/injection, schedule: Q01DX005 (ip), vehicle: water): 101 [survivor count not shown] and 111 % of control [survivor count not shown] | T/C (dose: 1.0 mg/kg/injection, schedule: Q01DX005 (ip), vehicle: water): 106 [survivor count not shown] and 113 % of control [survivor count not shown] | T/C (dose: 2.0 mg/kg/injection, schedule: Q01DX005 (ip), vehicle: water): 117 [survivor count not shown] and 118 % of control [survivor count not shown]

CC1=CC2OC3CC4OC(=O)/C=C/C=C/C(=O)OCCC(C)C(O)C(=O)OCC2(CC1O)C4(C)C31CO1 (stereo not given)
T/C (dose: 62.5 micrograms/kg/injection, schedule: Q01DX009 (ip), vehicle: saline with Tween-80): 96 % of control [survivor count not shown] | T/C (dose: 125.0 micrograms/kg/injection, schedule: Q01DX009 (ip), vehicle: saline with Tween-80): 116 % of control [survivor count not shown] | T/C (dose: 250.0 micrograms/kg/injection, schedule: Q01DX009 (ip), vehicle: saline with Tween-80): 118 % of control [survivor count not shown] | T/C (dose: 500.0 micrograms/kg/injection, schedule: Q01DX009 (ip), vehicle: saline with Tween-80): 142 % of control [survivor count not shown]

CC(=O)O[C@H]1C[C@@H]2OC3C=C(C)CCC3(C)[C@@]1(C)[C@@]21CO1 (stereo not given in full)
T/C (dose: 7.5 mg/kg/injection, schedule: Q04DX002 (ip), vehicle: saline + alcohol): 89 % of control [survivor count not shown] | T/C (dose: 15.0 mg/kg/injection, schedule: Q04DX002 (ip), vehicle: saline + alcohol): 89 % of control [survivor count not shown] | T/C (dose: 30.0 mg/kg/injection, schedule: Q04DX002 (ip), vehicle: saline + alcohol): 105 % of control [survivor count not shown] | T/C (dose: 60.0 mg/kg/injection, schedule: Q04DX002 (ip), vehicle: saline + alcohol): 107 % of control [survivor count not shown]
